Measured values taken from publication PMC2714844.
Results are given in words; binding and its absence hold for the method and conditions named. Binding seen in cells or lysates may run through a third protein. Some results given as binding are weak or reduced against the parent protein; the word gives no strength. For some assays here: Sequences can lack the tags named with a protein.

Chains of the proteins cited; added tags and fusions are not shown. Lines headed by an entry give the natural chain unless they say otherwise; changes in a name come on top.
UniProt P00546: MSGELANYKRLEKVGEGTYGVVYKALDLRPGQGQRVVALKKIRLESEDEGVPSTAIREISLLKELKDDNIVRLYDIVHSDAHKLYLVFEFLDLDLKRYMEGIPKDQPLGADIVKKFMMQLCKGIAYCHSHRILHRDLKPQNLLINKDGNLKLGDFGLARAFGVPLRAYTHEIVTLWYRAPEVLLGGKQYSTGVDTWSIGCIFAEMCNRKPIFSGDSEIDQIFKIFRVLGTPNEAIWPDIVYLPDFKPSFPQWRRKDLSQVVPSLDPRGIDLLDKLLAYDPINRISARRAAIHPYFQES

Legend:
[1] = biological target: T1, p13^Suc1 (S. pombe Cks1 homolog) (S. pombe) (UniProt P08463); assay: pull-down; 1 mg yeast protein extract incubated overnight at 4°C with 50 μl p13^Suc1 Sepharose bead slurry; extract buffer 50 mM Tris pH 7.6, 10% glycerol, 0.5% NP-40, 2 mM EDTA, 250 mM NaCl; beads washed five times; blot with anti-PSTAIRE; extracts of wild-type or cdc28-E217V cells at 30°C, and of swe1 or mih1 deletion strains; only the target purified
T1 sequence: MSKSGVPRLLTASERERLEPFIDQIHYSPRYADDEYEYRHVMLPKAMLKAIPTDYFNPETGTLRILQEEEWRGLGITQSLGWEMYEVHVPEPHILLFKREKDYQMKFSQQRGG

[2] = biological target: T2, GST-Swe1 (yeast) (UniProt P32944); assay: pull-down; GST-Swe1 coated glutathione beads (100 μl of 50% slurry) incubated overnight with 1 mg yeast extract, washed as for p13^Suc1 beads; extracts of wild-type or cdc28-E217V cells, with or without high copy CKS1; only the target purified
T2 sequence: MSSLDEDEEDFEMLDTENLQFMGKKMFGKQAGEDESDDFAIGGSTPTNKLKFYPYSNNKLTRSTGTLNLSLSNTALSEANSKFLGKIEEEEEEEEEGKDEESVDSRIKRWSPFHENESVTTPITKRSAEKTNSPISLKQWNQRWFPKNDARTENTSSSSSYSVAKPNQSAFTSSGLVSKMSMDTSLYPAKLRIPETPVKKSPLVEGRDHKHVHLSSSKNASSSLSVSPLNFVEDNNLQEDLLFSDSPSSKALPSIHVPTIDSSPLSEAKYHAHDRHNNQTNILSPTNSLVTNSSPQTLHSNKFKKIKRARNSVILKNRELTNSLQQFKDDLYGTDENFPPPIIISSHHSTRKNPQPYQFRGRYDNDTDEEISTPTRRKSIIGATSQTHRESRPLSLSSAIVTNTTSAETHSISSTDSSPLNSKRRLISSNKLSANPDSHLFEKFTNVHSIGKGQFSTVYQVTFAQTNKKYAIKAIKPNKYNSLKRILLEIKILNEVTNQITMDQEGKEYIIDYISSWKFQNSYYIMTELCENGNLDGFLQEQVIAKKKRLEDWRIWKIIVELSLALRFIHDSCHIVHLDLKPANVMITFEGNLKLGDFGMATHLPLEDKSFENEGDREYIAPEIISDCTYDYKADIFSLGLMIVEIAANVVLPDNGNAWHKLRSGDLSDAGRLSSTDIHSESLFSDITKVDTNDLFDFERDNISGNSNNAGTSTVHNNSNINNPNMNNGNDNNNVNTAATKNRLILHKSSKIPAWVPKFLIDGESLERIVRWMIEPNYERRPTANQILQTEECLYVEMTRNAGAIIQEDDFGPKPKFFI

Row | Substance | binding [1] | binding [2]
1 | Tyr19-phosphorylated Cdc28 (from UniProt P00546 1-298) | binds | 
2 | Cdc28 (wild type) (from UniProt P00546 1-298) | binds | binds
3 | Cdc28-E217V (from UniProt P00546 1-298) | binds | binds
